Test results as given in paper PMC7821693, “Revealing biophysical properties of KfrA-type proteins as a novel class of cytoskeletal, coiled-coil plasmid-encoded proteins”.
A weaker result is weaker than the reference pair of the same experiment. Where a protein sequence is shown, tags need not be part of it.

Key:
[1] = target: T1, KfrA R751 (His6-KfrAR751) (IncP-1beta plasmid R751) (UniProt P71173); assay: competition with a labelled probe; conditions: vs labeled OKR751, slightly decreased binding; EMSA: 50 mM Tris-HCl pH 8.0, 10 mM MgCl2, 50 mM NaCl, 10 pmol DNA, 30 min at 37 C (legend: 25 C), 2.5% agarose in 0.5x TBE; recombinant protein; residues 1-342
T1 sequence (looked up): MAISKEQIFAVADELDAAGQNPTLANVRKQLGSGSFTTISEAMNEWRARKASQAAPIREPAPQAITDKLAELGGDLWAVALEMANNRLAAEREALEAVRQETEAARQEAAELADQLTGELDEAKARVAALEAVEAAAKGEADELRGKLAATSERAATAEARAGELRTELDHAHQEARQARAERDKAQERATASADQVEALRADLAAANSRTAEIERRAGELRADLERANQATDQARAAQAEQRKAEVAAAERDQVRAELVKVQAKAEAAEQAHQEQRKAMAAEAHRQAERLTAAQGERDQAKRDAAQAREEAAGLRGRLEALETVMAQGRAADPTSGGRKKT

[2] = target: T2, KfrA RA3 (His6-KfrARA3) (IncU plasmid RA3) (UniProt Q209P3); assay: competition with a labelled probe; conditions: vs labeled OKRA3, slightly decreased binding; EMSA: 50 mM Tris-HCl pH 8.0, 10 mM MgCl2, 50 mM NaCl, 10 pmol DNA, 30 min at 37 C (legend: 25 C), 2.5% agarose in 0.5x TBE; recombinant protein; residues 1-355
T2 sequence (looked up): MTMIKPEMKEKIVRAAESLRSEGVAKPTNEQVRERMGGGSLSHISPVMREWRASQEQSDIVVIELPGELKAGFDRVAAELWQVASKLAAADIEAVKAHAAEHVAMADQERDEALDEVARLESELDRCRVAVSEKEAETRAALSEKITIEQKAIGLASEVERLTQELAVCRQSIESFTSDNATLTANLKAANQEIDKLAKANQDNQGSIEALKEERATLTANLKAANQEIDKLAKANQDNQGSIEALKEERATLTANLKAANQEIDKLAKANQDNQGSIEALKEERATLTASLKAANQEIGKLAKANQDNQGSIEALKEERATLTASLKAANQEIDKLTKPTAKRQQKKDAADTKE

## AATTCGTTGTATTGTATGTATTGTATGTATTGTATTATAAG / TCGACTTATAATACAATACATACAATACATACAATACAACG [OG1/OD1 (#5/#6), used as nonspecific DNA]
[1]
  binding result: binds more weakly
[2]
  binding result: binds more weakly
